Reference: PubChem BioAssay AID1224830 (NIAID, 2016)
The whole screen tested about 18,000 reagents; below is an unselected part. Of all reagents, about 2,900 (16%) are marked active. 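Calls are made per well; low scores hint the gene aids the LPS response, high scores that it dampens it.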 A number with no mark means an inactive call. Repeated entries: four replicate wells of each siRNA pool. Reagent sequences are not shown.

Test: 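Host factors that control LPS-induced TNF expression in human macrophages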 (primary screen)
Cell system: human THP-1 monocytic leukaemia cells, TNF dual-luciferase reporter clone, PMA-differentiated to macrophage-like cells
Reagents: siRNA pool against human genes, 50 nM
Timing: LPS for 4 h, given about 3 days after siRNA transfection
Conditions: bacterial LPS (TLR4 ligand), 10 ng/ml
Detection: 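TNF firefly reporter luminescence divided by renilla, normalised to the plate median, then turned into a robust z-score for each replicate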
Scale: TNF reporter robust z-score: higher = stronger TNF reporter response to LPS
Call rule: 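a well is active when its z-score exceeds 2.8 or falls below -1.5; control wells carry no call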

| TNF reporter robust z-score | gene |
| --- | --- |
| -1.84 (active) | BMP8B (bone morphogenetic protein 8b) |
| 0.69 | BMP8B (bone morphogenetic protein 8b) |
| 0.4 | BMP8B (bone morphogenetic protein 8b) |
| -0.3 | BMP8B (bone morphogenetic protein 8b) |
| 0.51 | GPR173 (G protein-coupled receptor 173) |
| 0.65 | GPR173 (G protein-coupled receptor 173) |
| -0.12 | GPR173 (G protein-coupled receptor 173) |
| 0.85 | GPR173 (G protein-coupled receptor 173) |
| 2.14 | TSC22D2 (TSC22 domain family member 2) |
| 0.49 | TSC22D2 (TSC22 domain family member 2) |
| 0.69 | TSC22D2 (TSC22 domain family member 2) |
| 0.57 | TSC22D2 (TSC22 domain family member 2) |
| 1.79 | SNRPF (small nuclear ribonucleoprotein polypeptide F) |
| -0.87 | SNRPF (small nuclear ribonucleoprotein polypeptide F) |
| -0.91 | SNRPF (small nuclear ribonucleoprotein polypeptide F) |
| -0.52 | SNRPF (small nuclear ribonucleoprotein polypeptide F) |
| 0.7 | CLXN (calaxin) |
| 1.76 | CLXN (calaxin) |
| 0.39 | CLXN (calaxin) |
| 1.85 | CLXN (calaxin) |
| -0.48 | P2RY6 (pyrimidinergic receptor P2Y6) |
| -0.11 | P2RY6 (pyrimidinergic receptor P2Y6) |
| -0.15 | P2RY6 (pyrimidinergic receptor P2Y6) |
| -0.29 | P2RY6 (pyrimidinergic receptor P2Y6) |
| 1.77 | NAA25 (N-alpha-acetyltransferase 25, NatB auxiliary subunit) |
| 0.63 | NAA25 (N-alpha-acetyltransferase 25, NatB auxiliary subunit) |
| 1.26 | NAA25 (N-alpha-acetyltransferase 25, NatB auxiliary subunit) |
| 1.75 | NAA25 (N-alpha-acetyltransferase 25, NatB auxiliary subunit) |
| -0.82 | GNMT (glycine N-methyltransferase) |
| -0.14 | GNMT (glycine N-methyltransferase) |
| -0.71 | GNMT (glycine N-methyltransferase) |
| -0.26 | GNMT (glycine N-methyltransferase) |
| 0.93 | CLP1 (cleavage factor polyribonucleotide kinase subunit 1) |
| 2.02 | CLP1 (cleavage factor polyribonucleotide kinase subunit 1) |
| 1.29 | CLP1 (cleavage factor polyribonucleotide kinase subunit 1) |
| 0.85 | CLP1 (cleavage factor polyribonucleotide kinase subunit 1) |
| 1.21 | CRISPLD2 (cysteine rich secretory protein LCCL domain containing 2) |
| 2.55 | CRISPLD2 (cysteine rich secretory protein LCCL domain containing 2) |
| 0.69 | CRISPLD2 (cysteine rich secretory protein LCCL domain containing 2) |
| 2.34 | CRISPLD2 (cysteine rich secretory protein LCCL domain containing 2) |
| 0.92 | KLK8 (kallikrein related peptidase 8) |
| 0.49 | KLK8 (kallikrein related peptidase 8) |
| -0.67 | KLK8 (kallikrein related peptidase 8) |
| 0.4 | KLK8 (kallikrein related peptidase 8) |
| -1.06 | FKBP8 (FKBP prolyl isomerase 8) |
| 1.27 | FKBP8 (FKBP prolyl isomerase 8) |
| 1.88 | FKBP8 (FKBP prolyl isomerase 8) |
| 1.18 | FKBP8 (FKBP prolyl isomerase 8) |

Hits, of those listed so far:
| TNF reporter robust z-score | gene |
| --- | --- |
| -1.84 (active) | BMP8B (bone morphogenetic protein 8b) |

Continued.
| TNF reporter robust z-score | gene |
| --- | --- |
| 0.78 | FZD9 (frizzled class receptor 9) |
| 1.5 | FZD9 (frizzled class receptor 9) |
| 1.3 | FZD9 (frizzled class receptor 9) |
| 0.84 | FZD9 (frizzled class receptor 9) |
| -0.45 | NFYA (nuclear transcription factor Y subunit alpha) |
| 4.28 (active) | NFYA (nuclear transcription factor Y subunit alpha) |
| -0.02 | NFYA (nuclear transcription factor Y subunit alpha) |
| -0.19 | NFYA (nuclear transcription factor Y subunit alpha) |
| 0.34 | DCTN2 (dynactin subunit 2) |
| 0.28 | DCTN2 (dynactin subunit 2) |
| -0.48 | DCTN2 (dynactin subunit 2) |
| 0.62 | DCTN2 (dynactin subunit 2) |
| 1.3 | CDCA3 (cell division cycle associated 3) |
| 0.27 | CDCA3 (cell division cycle associated 3) |
| 0.58 | CDCA3 (cell division cycle associated 3) |
| -0.74 | CDCA3 (cell division cycle associated 3) |
| -0.07 | TMEM192 (transmembrane protein 192) |
| -0.39 | TMEM192 (transmembrane protein 192) |
| -0.54 | TMEM192 (transmembrane protein 192) |
| 0.61 | TMEM192 (transmembrane protein 192) |
| 0.51 | ERCC5 (ERCC excision repair 5, endonuclease) |
| 1.84 | ERCC5 (ERCC excision repair 5, endonuclease) |
| 0.74 | ERCC5 (ERCC excision repair 5, endonuclease) |
| 1.75 | ERCC5 (ERCC excision repair 5, endonuclease) |
| -0.82 | TECPR1 (tectonin beta-propeller repeat containing 1) |
| -0.36 | TECPR1 (tectonin beta-propeller repeat containing 1) |
| -0.91 | TECPR1 (tectonin beta-propeller repeat containing 1) |
| -0.17 | TECPR1 (tectonin beta-propeller repeat containing 1) |
| 0.08 | TMEM38B (transmembrane protein 38B) |
| -0.02 | TMEM38B (transmembrane protein 38B) |
| -1.21 | TMEM38B (transmembrane protein 38B) |
| -1.02 | TMEM38B (transmembrane protein 38B) |
| 0.42 | GGCT (gamma-glutamylcyclotransferase) |
| 0.63 | GGCT (gamma-glutamylcyclotransferase) |
| 0.75 | GGCT (gamma-glutamylcyclotransferase) |
| 0.94 | GGCT (gamma-glutamylcyclotransferase) |
| -1.3 | RPL37 (ribosomal protein L37) |
| -1.11 | RPL37 (ribosomal protein L37) |
| -1.53 (active) | RPL37 (ribosomal protein L37) |
| -1.12 | RPL37 (ribosomal protein L37) |
| -1.12 | TAS2R4 (taste 2 receptor member 4) |
| -0.7 | TAS2R4 (taste 2 receptor member 4) |
| -0.64 | TAS2R4 (taste 2 receptor member 4) |
| -0.3 | TAS2R4 (taste 2 receptor member 4) |
| -1.17 | OR10H1 (olfactory receptor family 10 subfamily H member 1) |
| -0.58 | OR10H1 (olfactory receptor family 10 subfamily H member 1) |
| -1 | OR10H1 (olfactory receptor family 10 subfamily H member 1) |
| -1.03 | OR10H1 (olfactory receptor family 10 subfamily H member 1) |
| -1.04 | SERPINA3 (serpin family A member 3) |
| -0.64 | SERPINA3 (serpin family A member 3) |
| -0.89 | SERPINA3 (serpin family A member 3) |
| 1.73 | SERPINA3 (serpin family A member 3) |
| 2.21 | CASP9 (caspase 9) |
| 0.22 | CASP9 (caspase 9) |
| 1.63 | CASP9 (caspase 9) |
| 3.56 (active) | CASP9 (caspase 9) |
| -0.33 | EIF3H (eukaryotic translation initiation factor 3 subunit H) |
| -1.26 | EIF3H (eukaryotic translation initiation factor 3 subunit H) |
| -0.26 | EIF3H (eukaryotic translation initiation factor 3 subunit H) |
| -0.38 | EIF3H (eukaryotic translation initiation factor 3 subunit H) |
| -0.74 | ZRANB1 (zinc finger RANBP2-type containing 1) |
| -0.33 | ZRANB1 (zinc finger RANBP2-type containing 1) |
| -0.03 | ZRANB1 (zinc finger RANBP2-type containing 1) |
| -0.6 | ZRANB1 (zinc finger RANBP2-type containing 1) |
